# Laboratory results: PubChem BioAssay AID250 (DTP/NCI, 2004)
# The list does not hold the whole screen: it gathers tests that were run many times, whatever their T/C, doses with no T/C, and many T/C values between a quarter and a half above the control. Other doses and runs of a compound stand elsewhere. T/C is the treated group as % of the vehicle group. Some entries give survivors of the animals treated and no T/C: the source files T/C as zero there, which appears to mark a toxic dose or a test without result, not a measured value. For some of these results: Counts of survivors are from the toxicity check (mostly the fifth day) where no day follows; animals may have died later. Schedules are NCI's codes, read here as Q, the interval in days (D) or hours (H), X, the number of doses. For survival time, this PubChem deposit counts one and a half times the control or more as active, and values a quarter to a half above the control carry no call in these data; other NCI protocols may use other cut-offs. Some doses were run more than once; the values are given in rising order. Some T/C values carry the count of animals alive at the toxicity check (mostly the fifth day); without a count, all were alive then.
# Assays:
# [1] = test system: BDF1 mice, L1210 leukemia sc; assay: NCI In Vivo Anticancer Drug Screen. Data for tumor model L1210 Leukemia (subcutaneous) in B6D2F1 (BDF1) mice; details: T/C endpoint: median survival time, vehicle: saline, higher T/C = longer survival
# How it was run: (§1)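 Tumors were transplanted into mice, the animals were treated with compound, survival or tumor size was then measured, and treated values were divided by vehicle-control values.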
# [2] = test system: BDF1 mice, L1210 leukemia sc, survival T/C; assay: as above; details: T/C endpoint: median survival time, vehicle: saline, higher T/C = longer survival
# How it was run: as §1
# [3] = dose: 12.5 mg/kg/injection, schedule: Q04DX003 (sc), evaluated on day 7
# [4] = dose: 14.0 mg/kg/injection, schedule: Q04DX003 (sc), evaluated on day 7
# [5] = dose: 25.0 mg/kg/injection, schedule: Q04DX003 (sc), evaluated on day 7
# [6] = dose: 65.0 mg/kg/injection, schedule: Q04DX003 (sc), evaluated on day 7
compound,measurement,setting,value
CC[C@](O)(C(=O)O)c1cc2n(c(=O)c1CO)Cc1cc3ccccc3nc1-2,T/C,"[1]; dose: 4.0 mg/kg/injection, schedule: Q01DX009 (ip)",135 % of control
same,T/C,"[1]; dose: 4.0 mg/kg/injection, schedule: Q01DX009 (sc)",126 % of control
same,T/C,"[1]; dose: 10.0 mg/kg/injection, schedule: Q04DX003 (sc), evaluated on day 7",145 % of control
same,T/C,"[1]; dose: 10.0 mg/kg/injection, schedule: Q04DX003 (sc), evaluated on day 30",140 % of control
same,T/C,"[1]; dose: 12.5 mg/kg/injection, schedule: Q02DX005 (sc)",145 % of control
same,T/C,[1]; [3],140 and 142 % of control
same,T/C,"[1]; dose: 12.5 mg/kg/injection, schedule: Q04DX003 (sc), evaluated on day 24",140 % of control
same,T/C,"[1]; dose: 12.5 mg/kg/injection, schedule: Q04DX003 (sc), evaluated on day 25",142 % of control
same,T/C,[1]; [4],148 % of control
same,T/C,"[1]; dose: 14.0 mg/kg/injection, schedule: Q04DX003 (sc), evaluated on day 50",144 % of control
same,T/C,"[1]; dose: 20.0 mg/kg/injection, schedule: Q04DX003 (sc), evaluated on day 7",142 % of control
same,T/C,"[1]; dose: 20.0 mg/kg/injection, schedule: Q04DX003 (sc), evaluated on day 30",135 % of control
same,T/C,[1]; [5],141 % of control
same,T/C,"[1]; dose: 25.0 mg/kg/injection, schedule: Q04DX003 (sc), evaluated on day 24",140 % of control
same,T/C,"[1]; dose: 50.0 mg/kg/injection, schedule: Q02DX005 (sc), evaluated on day 7",127 % of control
same,T/C,"[1]; dose: 50.0 mg/kg/injection, schedule: Q02DX005 (sc), evaluated on day 24",125 % of control
same,T/C,[1]; [6],142 % of control
same,T/C,"[1]; dose: 65.0 mg/kg/injection, schedule: Q04DX003 (sc), evaluated on day 50",133 % of control
same,T/C,"[1]; dose: 65.0 mg/kg/injection, schedule: Q09DX003 (sc)",125 % of control
same,T/C,"[1]; dose: 83.3 mg/kg/injection, schedule: Q04DX003 (sc), evaluated on day 9",131 % of control
same,T/C,"[1]; dose: 83.3 mg/kg/injection, schedule: Q04DX003 (sc), evaluated on day 66",130 % of control
same,T/C,"[1]; dose: 83.3 mg/kg/injection, schedule: Q07DX003 (sc), evaluated on day 9",127 % of control
same,T/C,"[1]; dose: 83.3 mg/kg/injection, schedule: Q07DX003 (sc), evaluated on day 66",130 % of control
same,T/C,"[1]; dose: 100.0 mg/kg/injection, schedule: Q04DX003 (sc), evaluated on day 7","128, 133, 145 % of control"
same,T/C,"[1]; dose: 100.0 mg/kg/injection, schedule: Q04DX003 (sc), evaluated on day 24",130 % of control
same,T/C,"[1]; dose: 100.0 mg/kg/injection, schedule: Q04DX003 (sc), evaluated on day 25",142 % of control
same,T/C,"[1]; dose: 100.0 mg/kg/injection, schedule: Q04DX003 (sc), evaluated on day 28",127 % of control
same,T/C,"[1]; dose: 100.0 mg/kg/injection, schedule: Q07DX003 (sc), evaluated on day 7",125 and 132 % of control
same,T/C,"[1]; dose: 100.0 mg/kg/injection, schedule: Q07DX003 (sc), evaluated on day 25",126 % of control
same,T/C,"[1]; dose: 100.0 mg/kg/injection, schedule: Q07DX003 (sc), evaluated on day 28",144 % of control
same,T/C,"[1]; dose: 108.0 mg/kg/injection, schedule: Q04DX003 (sc), evaluated on day 7","138, 139, 146 % of control"
same,T/C,"[1]; dose: 108.0 mg/kg/injection, schedule: Q04DX003 (sc), evaluated on day 35",133 and 138 % of control
same,T/C,"[1]; dose: 108.0 mg/kg/injection, schedule: Q04DX003 (sc), evaluated on day 50",138 % of control
same,T/C,"[1]; dose: 108.0 mg/kg/injection, schedule: Q09DX003 (sc)",126 % of control
same,T/C,"[1]; dose: 191.0 mg/kg/injection, schedule: Q07DX003 (sc)",148 % of control
same,T/C,"[1]; dose: 299.0 mg/kg/injection, schedule: Q07DX003 (sc), evaluated on day 7",136 % of control
same,T/C,"[1]; dose: 299.0 mg/kg/injection, schedule: Q07DX003 (sc), evaluated on day 45",130 % of control
same,T/C,[2]; [3],163 % of control
same,T/C,"[2]; dose: 12.5 mg/kg/injection, schedule: Q04DX003 (sc), evaluated on day 28",161 % of control
same,T/C,[2]; [4],118 and 155 % of control
same,T/C,"[2]; dose: 14.0 mg/kg/injection, schedule: Q04DX003 (sc), evaluated on day 35",122 and 155 % of control
same,T/C,"[2]; dose: 23.0 mg/kg/injection, schedule: Q04DX003 (sc), evaluated on day 7","153, 163, 175 % of control"
same,T/C,"[2]; dose: 23.0 mg/kg/injection, schedule: Q04DX003 (sc), evaluated on day 35",155 and 166 % of control
same,T/C,"[2]; dose: 23.0 mg/kg/injection, schedule: Q04DX003 (sc), evaluated on day 50",172 % of control
same,T/C,[2]; [5],187 and 206 % of control
same,T/C,"[2]; dose: 25.0 mg/kg/injection, schedule: Q04DX003 (sc), evaluated on day 25",189 % of control
same,T/C,"[2]; dose: 25.0 mg/kg/injection, schedule: Q04DX003 (sc), evaluated on day 28",205 % of control
same,T/C,"[2]; dose: 39.0 mg/kg/injection, schedule: Q04DX003 (sc), evaluated on day 7","152, 156, 160 % of control"
same,T/C,"[2]; dose: 39.0 mg/kg/injection, schedule: Q04DX003 (sc), evaluated on day 35",155 and 166 % of control
same,T/C,"[2]; dose: 39.0 mg/kg/injection, schedule: Q04DX003 (sc), evaluated on day 50",155 % of control
same,T/C,"[2]; dose: 40.0 mg/kg/injection, schedule: Q07DX003 (sc), evaluated on day 7",115 and 171 % of control
same,T/C,"[2]; dose: 40.0 mg/kg/injection, schedule: Q07DX003 (sc), evaluated on day 30",110 % of control
same,T/C,"[2]; dose: 40.0 mg/kg/injection, schedule: Q07DX003 (sc), evaluated on day 45",170 % of control
same,T/C,"[2]; dose: 50.0 mg/kg/injection, schedule: Q04DX003 (sc), evaluated on day 7","166, 170, 207 % of control"
same,T/C,"[2]; dose: 50.0 mg/kg/injection, schedule: Q04DX003 (sc), evaluated on day 9",118 % of control
same,T/C,"[2]; dose: 50.0 mg/kg/injection, schedule: Q04DX003 (sc), evaluated on day 24",170 % of control
same,T/C,"[2]; dose: 50.0 mg/kg/injection, schedule: Q04DX003 (sc), evaluated on day 25",163 % of control
same,T/C,"[2]; dose: 50.0 mg/kg/injection, schedule: Q04DX003 (sc), evaluated on day 28",205 % of control
same,T/C,"[2]; dose: 50.0 mg/kg/injection, schedule: Q04DX003 (sc), evaluated on day 66",120 % of control
same,T/C,"[2]; dose: 50.0 mg/kg/injection, schedule: Q07DX003 (sc), evaluated on day 7",117 and 185 % of control
same,T/C,"[2]; dose: 50.0 mg/kg/injection, schedule: Q07DX003 (sc), evaluated on day 9",121 % of control
same,T/C,"[2]; dose: 50.0 mg/kg/injection, schedule: Q07DX003 (sc), evaluated on day 25",115 % of control
same,T/C,"[2]; dose: 50.0 mg/kg/injection, schedule: Q07DX003 (sc), evaluated on day 45",175 % of control
same,T/C,"[2]; dose: 50.0 mg/kg/injection, schedule: Q07DX003 (sc), evaluated on day 66",120 % of control
same,T/C,[2]; [6],152 and 178 % of control
same,T/C,"[2]; dose: 65.0 mg/kg/injection, schedule: Q04DX003 (sc), evaluated on day 35",155 and 177 % of control
same,T/C,"[2]; dose: 200.0 mg/kg/injection, schedule: Q07DX003 (sc), evaluated on day 7",93 and 122 % of control
same,T/C,"[2]; dose: 200.0 mg/kg/injection, schedule: Q07DX003 (sc), evaluated on day 25",94 % of control
same,T/C,"[2]; dose: 200.0 mg/kg/injection, schedule: Q07DX003 (sc), evaluated on day 28",111 % of control
same,survivor count,"[2]; dose: 320.0 mg/kg/injection, schedule: Q07DX003 (sc)",5 of 8
same,T/C,"[2]; dose: 400.0 mg/kg/injection, schedule: Q07DX003 (sc), evaluated on day 7",96 and 101 % of control
same,T/C,"[2]; dose: 400.0 mg/kg/injection, schedule: Q07DX003 (sc), evaluated on day 25",94 % of control [6 of 8 alive]
same,T/C,"[2]; dose: 400.0 mg/kg/injection, schedule: Q07DX003 (sc), evaluated on day 28",100 % of control
